No constants are given. Whether binding was seen depends on the method and setting. Some results given as binding are weak or reduced against the parent protein; the word gives no strength.
Biological target: T1, recombinant human IL-TIF/IL-22 (human) (UniProt Q9GZX6)
T1 sequence (looked up): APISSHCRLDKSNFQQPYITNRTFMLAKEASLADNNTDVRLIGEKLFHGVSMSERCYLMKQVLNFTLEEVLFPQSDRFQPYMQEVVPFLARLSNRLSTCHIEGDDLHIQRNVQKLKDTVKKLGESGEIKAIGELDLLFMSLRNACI
Assay: ELISA, IL-TIF/IL-22 coated on plate, HEK293 supernatant, anti-Ig peroxidase detection

binding: binds
B1: IL-22R-Ig (Fc fusion, UniProt Q8N6P7 16-228, looked up)
chain: HAPEDPSDLLQHVKFQSSNFENILTWDSGPEGTPDTVYSIEYKTYGERDWVAKKGCQRITRKSCNLTVETGNLTELYYARVTAVSAGGRSATKMTDRFSSLQHTTLKPPDVTCISKVRSIQMIVHPTPTPIRAGDGHRLTLEDIFHDLFYHLELQVNRTYQMHLGGKQREYEFFGLTPDTEFLGTIMICVPTWAKESAPYMCRVKTLPDRTWT
notes: Used as supernatant of transiently transfected HEK293 cells; also called fusion protein of IL-22R and the IgG3 Fc fragment; not shown: IgG3 Fc fragment, made 'in similar fashion' to the murine IgG3 hinge-CH2-CH3 of IL-TIFR-Ig
